Reference: patent EP0194864 (dated 1992)
Values joined by “and” are separate entries in the source; they are usually repeats but may differ in a detail not shown here. Equal entries are not always repeated.

Experiment: general procedure: peptide synthesis; trypsin (enzymatic transpeptidation)
Conditions: late stage modification step; for final HPLC purity: analytical reverse-phase HPLC, DISC PAGE electrophoresis

Substance	step yield [%]	final HPLC purity	step yield (from insulin precursor) [%]	step yield (over last step) [%]	step yield (run 1)
Arg^B27,Lys^B30-NH₂ human insulin	22	92%	–	–	–
Arg^B27,Thr^B30-NH₂ human insulin	43	about 96%	–	–	–
Gln^A17,Lys(Boc)^B30-NH₂ human insulin	29	–	–	–	–
Gln^A17,Lys^B30-NH₂ human insulin	–	about 97%	19	65	–
Gln^A17,Thr^B30-NH₂ human insulin	–	about 95%	–	–	53% and 37%
Gln^B13,Thr^B30-NH₂ human insulin	29	95%	–	–	–
Lys^B27,Lys^B30-NH₂ human insulin	22	94%	–	–	–
Lys^B27,Thr^B30-NH₂ human insulin	45	96%	–	–	–
